Laboratory results as given in paper PMC5303273.
Results are given in words; binding and its absence hold for the method and conditions named. For some assays here: In cells and extracts the contact can be indirect. Some binding calls cover weakened binding; strength is not graded here.

Protein sequences, listed by entry. Tags and fused reporters are not part of them. Lines headed by an entry give the natural chain unless they say otherwise; changes in a name come on top.
UniProt Q9VQ93: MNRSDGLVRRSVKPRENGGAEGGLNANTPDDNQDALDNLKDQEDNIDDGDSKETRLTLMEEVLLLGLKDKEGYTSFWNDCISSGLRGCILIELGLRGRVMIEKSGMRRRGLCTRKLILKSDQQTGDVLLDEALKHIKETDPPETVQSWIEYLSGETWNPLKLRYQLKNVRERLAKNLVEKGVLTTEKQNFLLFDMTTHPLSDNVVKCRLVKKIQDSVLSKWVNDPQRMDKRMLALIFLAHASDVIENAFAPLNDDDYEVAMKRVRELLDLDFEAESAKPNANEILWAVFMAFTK
UniProt O18332: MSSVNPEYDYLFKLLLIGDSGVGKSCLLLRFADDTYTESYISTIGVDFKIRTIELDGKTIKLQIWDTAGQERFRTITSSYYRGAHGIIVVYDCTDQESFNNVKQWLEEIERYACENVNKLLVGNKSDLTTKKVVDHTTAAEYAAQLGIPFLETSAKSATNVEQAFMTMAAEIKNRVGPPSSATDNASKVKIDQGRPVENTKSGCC

Assays:
[1] = biological target: Drosophila GOLPH3 (endogenous) (Drosophila melanogaster (endogenous in testes)) (UniProt Q9VQ93); assay: co-IP; 400 adult wild-type testes in lysis buffer (10 mM Tris-HCl pH 7.5, 150 mM NaCl, 0.5 mM EDTA, 0.5% NP40); IP with rabbit anti-GOLPH3 G49139/77, preimmune serum as control, Protein G kit; blot with mouse anti-Rab1 S12085a
[2] = biological target: Drosophila GOLPH3 (endogenous) (Drosophila melanogaster (endogenous in testes)) (UniProt Q9VQ93); assay: proximity ligation; Duolink PLA with mouse anti-Rab1 S12085a and rabbit anti-GOLPH3 G49139/77 on fixed interphase and telophase spermatocytes; GOLPH3RNAi testes as negative control
[3] = biological target: GOLPH3 bait (yeast two-hybrid) (Drosophila melanogaster) (UniProt Q9VQ93); assay: two-hybrid; B42/lexA system, strain EGY48, bait in pEG202, prey in pJG4-5; X-GAL plates with raffinose or galactose; beta-galactosidase assay with ONPG

Question: For “Drosophila Rab1 (endogenous) (from UniProt O18332 1-205)”, which binding [1] is on record?
Answer: Its binding is “binds”.

Question: What about the binding [2] of the same substance?
Answer: Its binding is “binds”.

Question: How did the binding [3] turn out when “Rab1 prey, wild type (yeast two-hybrid) (from UniProt O18332 1-205)” was run?
Answer: The binding was “binds”.

Question: For “Rab1Q70L prey (yeast two-hybrid) (from UniProt O18332 1-205)”, which binding [3] is on record?
Answer: The binding was “binds”.

Question: With “Rab1S25N prey (yeast two-hybrid) (from UniProt O18332 1-205)” as the substance, how does the binding [3] read?
Answer: Its binding is “binds weakly”.
